Literature values as cited in patent US7645735B2, “Anti-angiogenic peptides for treating or preventing endometriosis” (Children's Medical Center Corporation, priority 2003, dated 2010).

Conditions: cited from earlier work

B1: human endostatin (EntreMed): recombinant human endostatin, gift from EntreMed Corporation (protein, listed as Homo sapiens)
chain: HSHRDFQPVLHLVALNSPLSGGMRGIRGADFQCFQQARAVGLAGTFRAFLSSRLQDLYSIVRRADRAAVPIVNLKDELLFPSWEALFSGSEGPLKPGARIFSFNGKDVLTHPTWPQKSVWHGSDPNGRRLTESYCETWRTEAPSATGQAYSLLGGRLLGQSAASCHHAYIVLCIENSFMTASK
- atoms of zinc bound per molecule of endostatin (Sim et al. (1999)): 10 atoms of zinc per molecule
- zinc per endostatin molecule (crystal structure studies, Ding et al. (1998)): 1 atom of zinc/endostatin molecule
